Assay [1] deals with T1, Vps41-TAP (S. cerevisiae), P38959.
T1 chain: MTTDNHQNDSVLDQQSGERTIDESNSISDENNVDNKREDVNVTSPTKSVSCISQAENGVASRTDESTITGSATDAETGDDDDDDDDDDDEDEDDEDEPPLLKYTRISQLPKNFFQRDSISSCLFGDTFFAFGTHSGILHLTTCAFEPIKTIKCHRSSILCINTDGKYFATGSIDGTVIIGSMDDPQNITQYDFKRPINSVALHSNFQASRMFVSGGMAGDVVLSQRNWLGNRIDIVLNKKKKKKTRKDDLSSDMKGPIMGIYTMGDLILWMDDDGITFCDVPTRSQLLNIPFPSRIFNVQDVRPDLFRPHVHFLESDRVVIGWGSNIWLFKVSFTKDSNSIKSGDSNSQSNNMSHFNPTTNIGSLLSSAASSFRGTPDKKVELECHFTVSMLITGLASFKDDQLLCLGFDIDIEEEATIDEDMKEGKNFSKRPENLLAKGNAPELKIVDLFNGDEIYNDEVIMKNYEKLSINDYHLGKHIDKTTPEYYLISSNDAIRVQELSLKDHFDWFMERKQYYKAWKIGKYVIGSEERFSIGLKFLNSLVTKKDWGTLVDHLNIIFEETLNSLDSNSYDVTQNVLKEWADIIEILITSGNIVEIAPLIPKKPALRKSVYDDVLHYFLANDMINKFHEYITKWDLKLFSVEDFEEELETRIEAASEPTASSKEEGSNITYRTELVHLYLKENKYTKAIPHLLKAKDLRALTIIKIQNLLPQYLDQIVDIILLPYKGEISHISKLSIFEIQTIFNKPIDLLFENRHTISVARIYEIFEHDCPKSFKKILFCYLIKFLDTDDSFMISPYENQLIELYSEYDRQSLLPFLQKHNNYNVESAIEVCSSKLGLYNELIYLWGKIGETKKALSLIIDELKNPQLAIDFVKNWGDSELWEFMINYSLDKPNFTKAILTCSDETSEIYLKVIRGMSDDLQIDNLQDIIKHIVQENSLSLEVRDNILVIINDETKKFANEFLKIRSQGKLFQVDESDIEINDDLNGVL
The assay can be described thus: tandem affinity purification with SDS-PAGE and Coomassie staining; yeast lysate on IgG Sepharose by the TAP-tagged subunit, 2 h 4 C, washed, eluted by TEV cleavage; 300 mM NaCl (HOPS) or 150 mM NaCl (Mon1-Ccz1). The note with it: remark: other sources report otherwise.

Amino acid sequences for entries named in this document (tags omitted).
UniProt P32939: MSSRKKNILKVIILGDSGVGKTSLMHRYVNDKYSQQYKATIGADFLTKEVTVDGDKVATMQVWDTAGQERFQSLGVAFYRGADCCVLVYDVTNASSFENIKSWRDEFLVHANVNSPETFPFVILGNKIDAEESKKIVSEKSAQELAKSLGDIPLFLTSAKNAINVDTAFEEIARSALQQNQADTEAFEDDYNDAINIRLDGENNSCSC

The target of assay [2] is prenylated mNeonGreen-Ypt7 (S. cerevisiae) (UniProt P32939). The experiment in a line: SEC; 10 uM GDP-loaded Rab prenylated with 9 uM GDI, 1 uM Mrs6, 1 uM Bet2-Bet4 and geranylgeranyl pyrophosphate, 1 h 37 C; His-tagged enzymes removed on Ni-NTA; Rab:GDI complex isolated by size exclusion chromatography, SDS-PAGE; both purified. For orientation: Size exclusion chromatography separates by hydrodynamic size, large species first.

Assay [3] deals with prenylated Ypt7 (S. cerevisiae) (UniProt P32939). The assay is described as above.

No constants are given. Whether binding was seen depends on the method and setting. Some entries that bind do so weakly or less than the wild type. For part of these data: Where a sequence is shown, tags or fusion partners need not be part of it.

B1: Vps39-yEGFP, Q07468 1-1049 (protein)
chain: MLRAQKLHSLKSSDITAILPTEQSQKLVLAKKNGDVEVYSRDGNTLKLFQVYPDLLQNAKNDPLPPVIENFYFANELSTIFAQCKETLILLSTTNLHEYDRIIDRRGINHCWLFERSHKNKEEKNTYLIYSTINTAKMRVLIWEGRTYKNMMEASLSYRKETIRSIYPGETGITLATDLGIYHWPYNKPSLIRIEKTVKNKFPKDMISALTELKEQAEKVIEKKPKKNSHFDAQSFSSMDRMSRKSSMSSLWYRTIRNERGNKIRYTFELDGNDATPMIIDGATKKIFKVELMHNNEEPFLIATDHATFSESNSEFDHMQYLSSNLLMLYNSSTIKFVDYENGFTFLQQKIPEGIKWVKNLSGTYFLVWTSNDEVQLFSYHVDDGSEDDDQESICGDINDPDFYQLWRKVLFYKFFIDSPHSKELCVSDNPEESLDICAMKLRDLTVMWCLRIFDKFQNYMVQLERSRNSRMIRSKCEEMIIKSIFDLFIKFWAPPQLVILKVFPSAISSLVLEITGQEHHCLLKEAEEVKETYDIPPHLLNRWCLPYLTDTRRHLQNLLSKENDDESRITWCYRDREIKQSFDFFLISNHDDVDLNTMLTLIDTVLFKCYLYYNPPMVGPFIRVENHCDSHVIVTELKIRHMFKDLIDFYYKRGNHEEALKFLTDLVDELENDNTDQKQRQKIDHGVKILVIYYLKKLSNPQLDVIFTYTDWLLNRHNDSIKEILSSIFFYDSQACSSRDHLKVYGYIKKFDKLLAIQYLEFAISTFRLEGNKLHTVLIKLYLENLDIPSTRIKLKSLLETTSVYEPRTILKLLNDAIESGSDQLPTNQLNFVKYLKIFPLSKLENHKEAVHILLDEIDDYKAATSYCNDVYQSDSTKGEELLLYLYSKLVSIYDSNRNSKLILNFLQDHGSKLNSAEIYKNLPQDISLYDIGRVVSQLLKKHTSKMDETRLEKALLQVELVATTYKLNERMSSYGVLSDSHKCPICKKVISNFGTDSISWFTREGRNIITHYNCGKVLQERFNAKNEKSSRIKQKTLGEVINELNNK
In the case of B1, the binding entry in assay [1] is given as “binds”.

B2: Gdi1 (protein, UniProt P39958 1-451)
chain: MDQETIDTDYDVIVLGTGITECILSGLLSVDGKKVLHIDKQDHYGGEAASVTLSQLYEKFKQNPISKEERESKFGKDRDWNVDLIPKFLMANGELTNILIHTDVTRYVDFKQVSGSYVFKQGKIYKVPANEIEAISSPLMGIFEKRRMKKFLEWISSYKEDDLSTHQGLDLDKNTMDEVYYKFGLGNSTKEFIGHAMALWTNDDYLQQPARPSFERILLYCQSVARYGKSPYLYPMYGLGELPQGFARLSAIYGGTYMLDTPIDEVLYKKDTGKFEGVKTKLGTFKAPLVIADPTYFPEKCKSTGQRVIRAICILNHPVPNTSNADSLQIIIPQSQLGRKSDIYVAIVSDAHNVCSKGHYLAIISTIIETDKPHIELEPAFKLLGPIEEKFMGIAELFEPREDGSKDNIYLSRSYDASSHFESMTDDVKDIYFRVTGHPLVLKQRQEQEKQ
On to B2, for which the binding result in assay [2] and in assay [3] was “binds” each time.

These data come from article PMC7847308, “Nanoscopic anatomy of dynamic multi-protein complexes at membranes resolved by graphene-induced energy transfer” (eLife, 2021).
